Earlier results in patent publication US20220031700A1, “Treatment of Acute Respiratory Distress Syndrome (ARDS)” (priority 2020, published 2022).
For at least one compound, name, drawing or mass did not settle the structure.

Legend:
IL-6 = conditions: historical representative data, not included in this study; cited from earlier work
TNF-alpha = conditions: historical representative data, not included in this study; cited from earlier work

For `C[C@@H]1C[C@H]2[C@@H]3CCC4=CC(=O)C=C[C@]4(C)[C@@]3(F)[C@@H](O)C[C@]2(C)[C@@]1(O)C(=O)CO` [dexamethasone, reference compound], the IL-6 levels (IL-6) is listed as “markedly and reliably reduces” and the “TNF-∝ levels” value (TNF-alpha) is listed as “markedly and reliably reduces”.
